Reference: PMC6733923
No constants are given. Whether binding was seen depends on the method and setting. In cells and extracts the contact can be indirect. Here binding means that the protein was enriched with, or labelled near, the bait; the list need not be complete.

The chains behind the UniProt entries cited, without tags or fusion partners. Where a name states a change or a piece, a line headed by the entry shows the natural chain unless it says otherwise. A line that says so, or that is headed by a name, gives the form on record, which may keep a tag or linker. Residues count along the entry.
UniProt Q05397: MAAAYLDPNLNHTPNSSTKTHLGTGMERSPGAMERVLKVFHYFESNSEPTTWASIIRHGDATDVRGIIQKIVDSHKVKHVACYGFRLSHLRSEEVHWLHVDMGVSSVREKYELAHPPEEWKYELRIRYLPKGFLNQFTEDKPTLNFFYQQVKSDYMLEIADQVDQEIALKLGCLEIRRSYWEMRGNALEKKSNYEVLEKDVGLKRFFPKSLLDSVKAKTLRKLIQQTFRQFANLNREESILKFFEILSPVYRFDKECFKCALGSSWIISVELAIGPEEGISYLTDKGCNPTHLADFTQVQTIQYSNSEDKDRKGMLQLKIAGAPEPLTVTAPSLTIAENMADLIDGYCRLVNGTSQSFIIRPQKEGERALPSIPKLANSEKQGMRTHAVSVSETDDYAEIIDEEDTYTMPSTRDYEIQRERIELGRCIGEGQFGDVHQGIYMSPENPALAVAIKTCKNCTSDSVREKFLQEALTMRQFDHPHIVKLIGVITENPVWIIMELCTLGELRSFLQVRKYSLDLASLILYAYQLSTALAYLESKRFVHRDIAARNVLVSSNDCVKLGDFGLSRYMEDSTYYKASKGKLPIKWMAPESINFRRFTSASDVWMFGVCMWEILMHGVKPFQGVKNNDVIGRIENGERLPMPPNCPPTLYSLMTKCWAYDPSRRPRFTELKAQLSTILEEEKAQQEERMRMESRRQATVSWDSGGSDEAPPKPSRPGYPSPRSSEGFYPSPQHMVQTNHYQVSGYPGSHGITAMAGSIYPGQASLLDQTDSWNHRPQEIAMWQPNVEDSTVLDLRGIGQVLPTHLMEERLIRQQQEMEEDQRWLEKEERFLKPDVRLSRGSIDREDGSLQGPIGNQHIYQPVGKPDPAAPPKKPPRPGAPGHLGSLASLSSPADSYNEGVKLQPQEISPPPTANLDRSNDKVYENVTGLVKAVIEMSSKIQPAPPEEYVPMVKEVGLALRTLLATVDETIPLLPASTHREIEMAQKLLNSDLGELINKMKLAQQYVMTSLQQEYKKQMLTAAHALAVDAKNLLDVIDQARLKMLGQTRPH
UniProt Q9NQT5: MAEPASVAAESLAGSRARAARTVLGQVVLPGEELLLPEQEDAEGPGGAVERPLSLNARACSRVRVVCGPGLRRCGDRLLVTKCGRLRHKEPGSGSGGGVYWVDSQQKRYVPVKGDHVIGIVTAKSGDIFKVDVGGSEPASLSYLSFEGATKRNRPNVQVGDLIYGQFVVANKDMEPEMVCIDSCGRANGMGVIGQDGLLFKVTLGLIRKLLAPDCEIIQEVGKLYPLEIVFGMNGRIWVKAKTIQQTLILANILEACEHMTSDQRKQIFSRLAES
UniProt A0A0C4DH55, residues 24-119: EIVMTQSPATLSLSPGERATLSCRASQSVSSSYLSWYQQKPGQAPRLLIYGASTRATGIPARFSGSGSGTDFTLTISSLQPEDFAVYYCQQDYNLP
UniProt Q07157: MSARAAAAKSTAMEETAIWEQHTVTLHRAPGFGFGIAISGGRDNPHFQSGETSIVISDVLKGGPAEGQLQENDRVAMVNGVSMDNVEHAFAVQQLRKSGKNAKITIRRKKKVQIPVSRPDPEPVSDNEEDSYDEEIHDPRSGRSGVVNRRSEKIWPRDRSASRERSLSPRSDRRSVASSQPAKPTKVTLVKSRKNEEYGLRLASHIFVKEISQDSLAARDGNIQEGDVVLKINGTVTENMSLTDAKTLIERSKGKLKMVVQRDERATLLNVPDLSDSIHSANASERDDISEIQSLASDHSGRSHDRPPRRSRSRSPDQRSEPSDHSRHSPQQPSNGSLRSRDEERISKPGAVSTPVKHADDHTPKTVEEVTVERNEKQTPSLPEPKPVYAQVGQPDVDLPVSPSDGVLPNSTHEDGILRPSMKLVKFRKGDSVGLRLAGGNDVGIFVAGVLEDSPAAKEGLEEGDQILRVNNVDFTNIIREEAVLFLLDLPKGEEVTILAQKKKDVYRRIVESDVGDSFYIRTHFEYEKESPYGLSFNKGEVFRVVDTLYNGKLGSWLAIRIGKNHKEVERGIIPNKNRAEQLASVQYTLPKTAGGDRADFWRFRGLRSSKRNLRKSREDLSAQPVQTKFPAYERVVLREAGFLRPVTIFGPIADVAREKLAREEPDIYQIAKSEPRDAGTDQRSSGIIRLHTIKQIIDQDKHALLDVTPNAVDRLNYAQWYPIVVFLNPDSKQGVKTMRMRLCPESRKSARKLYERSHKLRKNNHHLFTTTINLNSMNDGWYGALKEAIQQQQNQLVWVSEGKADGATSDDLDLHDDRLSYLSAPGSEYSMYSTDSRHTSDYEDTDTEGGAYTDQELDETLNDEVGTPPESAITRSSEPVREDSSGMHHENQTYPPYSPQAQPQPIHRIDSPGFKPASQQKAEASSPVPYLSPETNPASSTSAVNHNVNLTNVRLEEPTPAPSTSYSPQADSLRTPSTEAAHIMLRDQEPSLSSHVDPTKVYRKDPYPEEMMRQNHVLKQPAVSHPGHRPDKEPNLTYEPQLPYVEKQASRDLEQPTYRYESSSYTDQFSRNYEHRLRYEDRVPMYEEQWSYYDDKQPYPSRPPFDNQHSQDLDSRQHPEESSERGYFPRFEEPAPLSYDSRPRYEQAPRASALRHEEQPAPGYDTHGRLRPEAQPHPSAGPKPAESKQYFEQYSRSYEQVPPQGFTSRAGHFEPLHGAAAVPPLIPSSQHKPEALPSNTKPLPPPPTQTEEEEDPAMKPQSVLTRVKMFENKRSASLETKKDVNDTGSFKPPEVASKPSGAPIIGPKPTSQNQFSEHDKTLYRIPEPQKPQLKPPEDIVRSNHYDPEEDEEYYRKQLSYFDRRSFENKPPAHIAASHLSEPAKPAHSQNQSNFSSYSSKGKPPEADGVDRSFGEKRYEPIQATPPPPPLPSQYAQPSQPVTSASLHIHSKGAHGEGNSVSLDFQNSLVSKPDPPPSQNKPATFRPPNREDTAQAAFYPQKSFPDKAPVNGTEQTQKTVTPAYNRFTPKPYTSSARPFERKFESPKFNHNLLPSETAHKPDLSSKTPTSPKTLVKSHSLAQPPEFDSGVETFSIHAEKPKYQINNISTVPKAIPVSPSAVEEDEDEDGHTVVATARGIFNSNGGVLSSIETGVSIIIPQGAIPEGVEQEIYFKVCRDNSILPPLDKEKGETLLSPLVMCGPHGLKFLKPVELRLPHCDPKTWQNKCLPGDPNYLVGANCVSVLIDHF
UniProt P21796: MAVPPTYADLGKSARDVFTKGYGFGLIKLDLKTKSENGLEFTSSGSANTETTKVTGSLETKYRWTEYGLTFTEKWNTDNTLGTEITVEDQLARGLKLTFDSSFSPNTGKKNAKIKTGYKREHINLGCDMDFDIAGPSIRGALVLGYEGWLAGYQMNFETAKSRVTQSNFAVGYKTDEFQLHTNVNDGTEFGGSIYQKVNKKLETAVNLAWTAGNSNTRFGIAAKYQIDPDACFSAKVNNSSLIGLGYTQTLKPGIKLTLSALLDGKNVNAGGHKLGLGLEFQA
UniProt P07355: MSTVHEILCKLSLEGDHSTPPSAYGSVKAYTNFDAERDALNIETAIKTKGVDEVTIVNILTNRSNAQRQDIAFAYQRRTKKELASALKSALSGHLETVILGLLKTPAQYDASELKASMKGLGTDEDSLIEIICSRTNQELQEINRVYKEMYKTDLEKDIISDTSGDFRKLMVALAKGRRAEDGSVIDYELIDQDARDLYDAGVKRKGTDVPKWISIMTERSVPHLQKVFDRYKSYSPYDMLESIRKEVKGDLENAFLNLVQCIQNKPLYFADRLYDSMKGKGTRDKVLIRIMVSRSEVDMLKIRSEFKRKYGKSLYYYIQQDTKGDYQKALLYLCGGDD
UniProt Q6NVV1: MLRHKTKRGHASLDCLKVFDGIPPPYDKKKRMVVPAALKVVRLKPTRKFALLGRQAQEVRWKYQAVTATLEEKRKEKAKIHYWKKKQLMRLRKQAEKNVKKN
Isoform 8 of Filamin-B (O75369-8, form named): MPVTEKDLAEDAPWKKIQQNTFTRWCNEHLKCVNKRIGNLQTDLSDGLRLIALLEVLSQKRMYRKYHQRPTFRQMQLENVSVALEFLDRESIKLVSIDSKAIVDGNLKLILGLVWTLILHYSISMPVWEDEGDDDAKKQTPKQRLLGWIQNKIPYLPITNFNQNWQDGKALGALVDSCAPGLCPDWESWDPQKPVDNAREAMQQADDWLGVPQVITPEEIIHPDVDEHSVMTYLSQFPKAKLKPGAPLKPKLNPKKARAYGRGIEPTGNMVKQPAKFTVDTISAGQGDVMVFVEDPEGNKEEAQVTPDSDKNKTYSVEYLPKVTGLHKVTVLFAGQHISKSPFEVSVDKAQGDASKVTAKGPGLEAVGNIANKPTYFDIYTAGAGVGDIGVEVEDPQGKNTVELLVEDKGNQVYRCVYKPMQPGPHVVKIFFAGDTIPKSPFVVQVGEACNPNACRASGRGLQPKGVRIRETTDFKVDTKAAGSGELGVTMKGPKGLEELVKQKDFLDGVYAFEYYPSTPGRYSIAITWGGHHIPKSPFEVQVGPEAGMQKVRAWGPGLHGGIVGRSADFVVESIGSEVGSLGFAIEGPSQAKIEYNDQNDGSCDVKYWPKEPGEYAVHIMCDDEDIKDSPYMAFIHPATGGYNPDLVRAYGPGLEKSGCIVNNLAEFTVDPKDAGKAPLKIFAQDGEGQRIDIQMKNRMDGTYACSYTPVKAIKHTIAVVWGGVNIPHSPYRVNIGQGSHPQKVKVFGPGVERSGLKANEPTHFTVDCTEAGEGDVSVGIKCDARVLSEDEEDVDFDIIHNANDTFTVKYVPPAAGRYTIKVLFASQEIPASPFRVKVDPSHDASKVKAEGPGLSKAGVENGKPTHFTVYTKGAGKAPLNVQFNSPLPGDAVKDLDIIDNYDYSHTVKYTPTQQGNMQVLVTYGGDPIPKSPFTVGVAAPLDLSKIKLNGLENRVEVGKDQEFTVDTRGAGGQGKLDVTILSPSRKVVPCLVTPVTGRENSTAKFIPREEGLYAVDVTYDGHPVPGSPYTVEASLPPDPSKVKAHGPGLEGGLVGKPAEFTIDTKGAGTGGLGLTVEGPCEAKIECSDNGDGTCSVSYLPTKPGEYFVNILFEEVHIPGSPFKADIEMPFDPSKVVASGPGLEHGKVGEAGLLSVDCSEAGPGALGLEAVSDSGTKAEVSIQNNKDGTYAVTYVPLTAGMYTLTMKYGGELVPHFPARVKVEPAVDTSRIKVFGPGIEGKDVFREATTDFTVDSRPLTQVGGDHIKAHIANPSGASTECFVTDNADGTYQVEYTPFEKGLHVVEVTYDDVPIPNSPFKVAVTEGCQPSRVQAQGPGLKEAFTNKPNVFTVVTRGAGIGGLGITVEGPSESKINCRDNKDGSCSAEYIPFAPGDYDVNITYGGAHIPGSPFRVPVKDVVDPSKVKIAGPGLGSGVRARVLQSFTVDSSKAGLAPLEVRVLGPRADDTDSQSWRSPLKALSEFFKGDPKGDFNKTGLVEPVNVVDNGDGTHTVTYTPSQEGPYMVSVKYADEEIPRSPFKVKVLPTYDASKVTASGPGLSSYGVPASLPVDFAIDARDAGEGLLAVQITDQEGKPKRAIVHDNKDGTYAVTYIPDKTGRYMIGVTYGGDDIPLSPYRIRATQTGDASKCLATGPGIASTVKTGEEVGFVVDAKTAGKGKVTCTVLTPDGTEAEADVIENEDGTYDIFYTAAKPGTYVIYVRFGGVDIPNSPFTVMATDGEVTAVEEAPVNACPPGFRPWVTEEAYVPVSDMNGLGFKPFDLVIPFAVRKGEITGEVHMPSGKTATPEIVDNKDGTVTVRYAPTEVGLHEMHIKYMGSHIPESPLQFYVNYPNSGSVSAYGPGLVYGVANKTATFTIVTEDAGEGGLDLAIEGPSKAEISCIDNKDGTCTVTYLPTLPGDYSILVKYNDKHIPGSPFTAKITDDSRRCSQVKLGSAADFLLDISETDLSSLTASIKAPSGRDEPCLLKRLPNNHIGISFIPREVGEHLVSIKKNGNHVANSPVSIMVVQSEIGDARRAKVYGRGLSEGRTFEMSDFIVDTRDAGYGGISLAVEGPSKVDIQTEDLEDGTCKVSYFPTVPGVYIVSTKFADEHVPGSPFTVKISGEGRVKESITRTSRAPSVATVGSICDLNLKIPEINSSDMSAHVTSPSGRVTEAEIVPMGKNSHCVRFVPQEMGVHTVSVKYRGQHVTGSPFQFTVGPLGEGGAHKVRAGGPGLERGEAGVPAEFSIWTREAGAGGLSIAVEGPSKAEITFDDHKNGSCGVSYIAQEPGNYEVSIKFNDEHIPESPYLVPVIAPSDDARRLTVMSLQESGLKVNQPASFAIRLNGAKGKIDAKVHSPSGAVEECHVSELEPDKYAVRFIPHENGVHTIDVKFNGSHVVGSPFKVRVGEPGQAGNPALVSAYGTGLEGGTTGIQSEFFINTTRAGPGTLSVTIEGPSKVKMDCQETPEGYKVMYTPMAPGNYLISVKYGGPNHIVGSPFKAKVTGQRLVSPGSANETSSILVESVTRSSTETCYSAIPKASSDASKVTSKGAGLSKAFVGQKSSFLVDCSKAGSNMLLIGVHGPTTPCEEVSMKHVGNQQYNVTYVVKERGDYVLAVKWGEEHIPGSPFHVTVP

Target: Focal adhesion kinase 1 (human (endogenous in HCT-116)) (UniProt Q05397)
Assay: affinity purification with mass spectrometry; anti-FAK polyclonal antibody and Protein A/G agarose on 1.5 mg HCT-116 total cell lysate, cells untreated (regular IP) or stimulated with 10 ng/ml EGF for 30 min; rabbit IgG as control; 1D SDS-PAGE, in-gel trypsin digestion, nano-LC-MS/MS; the proteins of Table 2 were found only with EGF …

Row | Substance | binding
1 | Isoform 4 of Alpha-actinin-1 (from UniProt P12814-4 1-930) | binds
2 | Nesprin-1 (from UniProt Q8NF91 1-8797) | binds
3 | exosome complex component RRP40 (from UniProt Q9NQT5 1-275) | binds
4 | Alpha-actinin-4 (from UniProt O43707 1-911) | binds
5 | splicing factor 3B subunit 1 (from UniProt O75533-1 1-1304) | binds
6 | ATP-dependent RNA helicase DDX3X (from UniProt O00571 1-662) | binds
7 | Eukaryotic translation initiation factor 3 subunit D (from UniProt O15371 1-548) | binds
8 | Indoleamine 2,3-dioxygenase 1 (from UniProt P14902 1-403) | binds
9 | immunoglobulin kappa variable 3D-7 (from UniProt A0A0C4DH55 24-119) | binds
10 | Isoform Mitochondrial of Lysine–tRNA ligase (from UniProt Q15046-2 1-625) | binds
11 | Growth factor receptor-bound protein 7 (from UniProt Q14451 1-532) | binds
12 | Target of EGR1 protein 1 (from UniProt Q96GM8 1-510) | binds
13 | Interleukin-1 receptor type 1 (from UniProt P14778 18-569) | binds
14 | Filamin-C (from UniProt Q14315 1-2725) | binds
15 | Ras GTPase-activating protein-binding protein 1 (from UniProt Q13283 1-466) | binds
16 | Tight junction protein ZO-1 (from UniProt Q07157 1-1748) | binds
17 | voltage-dependent anion-selective channel protein 1 (from UniProt P21796 1-283) | binds
18 | Desmoplakin (from UniProt P15924-1 1-2871) | binds
19 | Serine/threonine-protein phosphatase PP1-beta catalytic subunit (from UniProt P62140 1-327) | binds
20 | 5′-3′ exoribonuclease 1 (from UniProt Q8IZH2-1 1-1706) | binds
21 | Protein regulator of cytokinesis 1 (from UniProt O43663-1 1-620) | binds
22 | Stress-70 protein, mitochondrial (from UniProt P38646 47-679) | binds

More lines, now with the values ahead:

Row | binding | Substance
23 | binds | Isoform 2 of Unconventional myosin-Ic (from UniProt O00159-2 1-1028)
24 | binds | Elongation factor 1-alpha 1 (from UniProt P68104 1-462)
25 | binds | Unconventional myosin-Ib (from UniProt O43795 1-1136)
26 | binds | Cleavage and polyadenylation specificity factor subunit 6 (from UniProt Q16630-2 1-588)
27 | binds | Annexin A2 (from UniProt P07355 1-339)
28 | binds | E3 ubiquitin-protein ligase RING2 (from UniProt Q99496 1-336)
29 | binds | ELAV-like protein 1 (from UniProt Q15717 1-326)
30 | binds | SLIT-ROBO Rho GTPase-activating protein 2 (from UniProt O75044 1-1071)
31 | binds | Putative 60 S ribosomal protein L13a protein RPL13AP3 (from UniProt Q6NVV1 1-102)
32 | binds | Isoform 4 of Band 4.1-like protein 5 (from UniProt Q9HCM4-4 1-687)
33 | binds | Isoform 3 of LIM domain and actin-binding protein 1 (from UniProt Q9UHB6-3 1-457)
34 | binds | probable ATP-dependent RNA helicase DDX5 (from UniProt P17844 1-614)
35 | binds | UPF0488 protein C8orf33 (from UniProt Q9H7E9-1 1-229)
36 | binds | RNA binding motif protein, X-linked-like-1 (from UniProt Q96E39 1-390)
37 | binds | Spectrin beta chain, non-erythrocytic 1 (from UniProt Q01082-1 1-2364)
38 | binds | Microtubule-associated protein 4 (from UniProt P27816-1 1-1152)
39 | binds | Isoform 8 of Filamin-B (from UniProt O75369-8 1-2633)
40 | binds | Heterogeneous nuclear ribonucleoprotein A3 (from UniProt P51991-1 1-378)
41 | binds | Lamin-B1 (from UniProt P20700 1-586)
42 | binds | Heat shock protein HSP 90-beta (from UniProt P08238 1-724)
43 | binds | Filamin-A (from UniProt P21333 1-2647)
44 | binds | Poly(RC)-binding protein 1 (from UniProt Q15365 1-356)
45 | binds | Filaggrin-2 (from UniProt Q5D862 1-2391)
